Test results published in article PMC4633636.
These are yes or no findings as the source states them, for the method shown. Binding seen in cells or lysates may run through a third protein. These calls come from enrichment with a bait or labelling near it, and not all partners need be listed.

Sequences of proteins named here, by UniProt entry; tags and fusion partners are left off.
UniProt P78527: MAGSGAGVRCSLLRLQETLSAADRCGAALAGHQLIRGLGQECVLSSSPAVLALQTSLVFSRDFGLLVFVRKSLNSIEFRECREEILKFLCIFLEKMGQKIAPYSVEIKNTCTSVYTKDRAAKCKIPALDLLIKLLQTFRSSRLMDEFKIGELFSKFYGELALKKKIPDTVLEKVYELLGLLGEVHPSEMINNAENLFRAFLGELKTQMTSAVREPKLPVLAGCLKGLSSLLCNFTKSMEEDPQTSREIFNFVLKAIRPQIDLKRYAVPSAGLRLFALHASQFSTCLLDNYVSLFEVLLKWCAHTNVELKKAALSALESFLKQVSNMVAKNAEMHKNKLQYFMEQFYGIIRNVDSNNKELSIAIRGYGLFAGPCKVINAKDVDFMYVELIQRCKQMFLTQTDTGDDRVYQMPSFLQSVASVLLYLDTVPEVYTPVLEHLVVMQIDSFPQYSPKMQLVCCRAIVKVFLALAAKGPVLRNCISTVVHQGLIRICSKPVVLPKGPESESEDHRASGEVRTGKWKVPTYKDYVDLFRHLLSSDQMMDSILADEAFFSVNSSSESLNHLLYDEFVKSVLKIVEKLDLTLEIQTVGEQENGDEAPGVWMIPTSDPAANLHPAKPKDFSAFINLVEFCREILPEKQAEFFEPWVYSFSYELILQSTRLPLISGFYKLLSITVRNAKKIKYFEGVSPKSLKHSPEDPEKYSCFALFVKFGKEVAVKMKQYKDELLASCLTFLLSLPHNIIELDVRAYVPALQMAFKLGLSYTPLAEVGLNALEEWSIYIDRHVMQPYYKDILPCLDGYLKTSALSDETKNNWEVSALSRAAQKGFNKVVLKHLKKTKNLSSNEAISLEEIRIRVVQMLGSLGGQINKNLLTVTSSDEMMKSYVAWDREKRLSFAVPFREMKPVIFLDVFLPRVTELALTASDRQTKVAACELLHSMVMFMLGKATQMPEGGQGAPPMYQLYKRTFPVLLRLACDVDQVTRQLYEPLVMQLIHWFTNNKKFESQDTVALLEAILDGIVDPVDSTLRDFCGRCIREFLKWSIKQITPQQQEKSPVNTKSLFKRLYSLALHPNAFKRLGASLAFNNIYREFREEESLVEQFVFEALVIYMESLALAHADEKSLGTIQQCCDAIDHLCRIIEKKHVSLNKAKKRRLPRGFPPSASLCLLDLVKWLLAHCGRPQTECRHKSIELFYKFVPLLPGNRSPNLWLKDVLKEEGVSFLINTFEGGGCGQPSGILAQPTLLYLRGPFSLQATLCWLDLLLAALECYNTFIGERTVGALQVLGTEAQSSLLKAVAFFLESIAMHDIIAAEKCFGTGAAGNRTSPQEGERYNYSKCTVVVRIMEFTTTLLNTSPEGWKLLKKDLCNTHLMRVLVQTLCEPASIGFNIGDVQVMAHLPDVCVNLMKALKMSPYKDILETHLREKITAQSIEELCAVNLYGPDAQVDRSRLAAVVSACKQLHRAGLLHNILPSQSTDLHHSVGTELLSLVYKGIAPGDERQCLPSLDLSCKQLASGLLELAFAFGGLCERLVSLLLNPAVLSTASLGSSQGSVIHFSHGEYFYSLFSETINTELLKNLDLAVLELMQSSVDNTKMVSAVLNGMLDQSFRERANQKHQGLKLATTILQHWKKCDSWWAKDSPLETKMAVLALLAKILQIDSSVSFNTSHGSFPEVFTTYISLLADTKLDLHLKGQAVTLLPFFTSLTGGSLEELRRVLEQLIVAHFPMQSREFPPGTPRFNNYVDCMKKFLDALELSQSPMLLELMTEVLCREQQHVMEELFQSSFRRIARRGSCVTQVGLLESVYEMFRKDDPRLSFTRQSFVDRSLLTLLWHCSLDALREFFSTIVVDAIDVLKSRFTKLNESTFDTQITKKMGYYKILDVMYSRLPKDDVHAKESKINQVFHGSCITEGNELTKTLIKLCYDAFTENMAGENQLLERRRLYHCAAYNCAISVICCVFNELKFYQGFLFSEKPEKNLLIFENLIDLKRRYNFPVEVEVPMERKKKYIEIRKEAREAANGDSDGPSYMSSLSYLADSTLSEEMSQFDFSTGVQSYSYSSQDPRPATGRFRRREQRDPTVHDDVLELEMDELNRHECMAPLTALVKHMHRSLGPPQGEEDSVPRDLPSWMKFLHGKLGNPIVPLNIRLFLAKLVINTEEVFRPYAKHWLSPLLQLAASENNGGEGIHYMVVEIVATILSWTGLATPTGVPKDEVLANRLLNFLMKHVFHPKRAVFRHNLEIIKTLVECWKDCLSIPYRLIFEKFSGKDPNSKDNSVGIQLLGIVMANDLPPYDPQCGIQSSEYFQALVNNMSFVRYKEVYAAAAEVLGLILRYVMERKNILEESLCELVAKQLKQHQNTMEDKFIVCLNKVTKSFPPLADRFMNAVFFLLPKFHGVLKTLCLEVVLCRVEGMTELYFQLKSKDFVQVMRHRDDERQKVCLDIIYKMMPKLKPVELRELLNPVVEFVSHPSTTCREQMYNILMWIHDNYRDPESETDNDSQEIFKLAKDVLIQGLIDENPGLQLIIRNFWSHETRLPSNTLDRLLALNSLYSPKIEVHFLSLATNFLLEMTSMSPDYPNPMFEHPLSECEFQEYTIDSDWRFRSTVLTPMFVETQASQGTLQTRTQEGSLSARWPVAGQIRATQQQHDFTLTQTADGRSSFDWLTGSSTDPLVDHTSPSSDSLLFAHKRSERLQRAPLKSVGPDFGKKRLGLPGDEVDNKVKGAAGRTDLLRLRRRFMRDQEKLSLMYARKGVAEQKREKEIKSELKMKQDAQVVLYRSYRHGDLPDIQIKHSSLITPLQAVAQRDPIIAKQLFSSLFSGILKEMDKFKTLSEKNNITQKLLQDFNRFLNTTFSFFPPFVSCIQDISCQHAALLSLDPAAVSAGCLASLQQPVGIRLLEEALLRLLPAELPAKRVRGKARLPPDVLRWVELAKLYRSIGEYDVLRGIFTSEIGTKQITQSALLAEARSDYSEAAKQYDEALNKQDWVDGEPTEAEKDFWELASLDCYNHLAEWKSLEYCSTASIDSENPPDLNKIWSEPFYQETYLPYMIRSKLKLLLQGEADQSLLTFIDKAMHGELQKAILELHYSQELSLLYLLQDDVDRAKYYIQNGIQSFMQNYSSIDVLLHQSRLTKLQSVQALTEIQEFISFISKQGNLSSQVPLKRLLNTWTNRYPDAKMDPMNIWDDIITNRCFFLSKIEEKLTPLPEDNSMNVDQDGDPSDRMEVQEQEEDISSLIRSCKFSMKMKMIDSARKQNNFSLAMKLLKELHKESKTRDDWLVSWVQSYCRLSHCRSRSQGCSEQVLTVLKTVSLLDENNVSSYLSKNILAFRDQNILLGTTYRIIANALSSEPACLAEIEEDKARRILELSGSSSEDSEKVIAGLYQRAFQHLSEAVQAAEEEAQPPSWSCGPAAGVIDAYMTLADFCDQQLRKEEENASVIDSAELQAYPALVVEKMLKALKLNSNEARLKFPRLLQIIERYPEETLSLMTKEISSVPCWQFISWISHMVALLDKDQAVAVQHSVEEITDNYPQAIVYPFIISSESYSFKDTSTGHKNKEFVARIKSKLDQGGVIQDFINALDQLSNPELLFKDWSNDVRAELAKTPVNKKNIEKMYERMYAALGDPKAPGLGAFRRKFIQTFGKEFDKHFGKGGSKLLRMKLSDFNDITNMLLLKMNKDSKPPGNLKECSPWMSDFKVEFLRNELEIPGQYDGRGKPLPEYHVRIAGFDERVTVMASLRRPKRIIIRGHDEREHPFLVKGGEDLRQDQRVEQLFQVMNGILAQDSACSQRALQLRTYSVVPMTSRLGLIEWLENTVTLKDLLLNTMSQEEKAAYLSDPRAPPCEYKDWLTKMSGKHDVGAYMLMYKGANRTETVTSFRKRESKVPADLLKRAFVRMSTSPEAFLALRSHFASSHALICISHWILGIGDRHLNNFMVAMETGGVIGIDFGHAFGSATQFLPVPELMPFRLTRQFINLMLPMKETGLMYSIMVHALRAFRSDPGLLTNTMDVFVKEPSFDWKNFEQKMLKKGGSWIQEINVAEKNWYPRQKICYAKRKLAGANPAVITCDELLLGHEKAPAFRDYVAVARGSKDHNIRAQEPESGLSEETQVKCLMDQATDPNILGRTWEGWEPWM

Target: human LRF tagged with Flag and haemagglutinin (HA) epitopes (human) (UniProt O95365)

## DNA-PKcs (catalytic subunit of DNA-dependent protein kinase), endogenous in HeLa (from UniProt P78527 1-4128)
  binding: binds
